Results published in patent publication US20210261665A1.
These are yes or no findings as the source states them, for the method shown. Some entries that bind do so weakly or less than the wild type.

biological target: cynomolgus monkey PD-1 on cells (cynomolgus monkey) (UniProt B0LAJ3); assay: flow cytometry, CHOK1-cPD-1 cells, Alexa Fluor 488 anti-human IgG

binding | Binder
binds | TY101-01-09 (antibody, V domains shown) VH: EVQLVESGGGLVQPGGSLRLSCAASGFTFSSYTMSWVRQAPGKGLEWVSYISHGGGDTYYADSVKGRFTISRDNSKNTLYLQMNSLRAEDTAVYYCARHSGYERGYYYVMDYWGQGTLVTVSS VL: DIQLTQSPDSLSVSLGERATINCKASESVDYYGFSFLNWFQQKPGQPPKLLIYAASNRQSGVPDRFSGSGSGTDFTLTISSLQAEDVAVYFCQQSKEVPWTFGQGTKLEIKR
binds | TY101-4G1 (antibody, V domains shown) VH: EVQLVESGGGLVQPGGSLRLSCAASGFTFSSYTMSWVRQAPGKGLEWVSYISHGGGDTYYADSVKGRFTISRDNSKNTLYLQMNSLRAEDTAVYYCARHSGYERGYYYVMDYWGQGTLVTVSS VL: DIQLTQSPDSLSVSLGERATINCKASESVDYYGFSFLNWFQQKPGQPPKLLIYAASNRQSGVPDRFSGSGSGTDFTLTISSLQAEDVAVYFCQQSKEVPWTFGQGTKLEIKR
binds | TY101-04-T3-05 (antibody, V domains shown) VH: EVQLVESGGGLVQPGGSLRLSCAASGFTFSSYTMSWVRQAPGKGLEWVSYISHGGGDTYYADSVKGRFTISRDNSKNTLYLQMNSLRAEDTAVYYCARHSGYERGYYYVMDYWGQGTLVTVSS VL: DIQLTQSPDSLSVSLGERATINCKASESVDYYGFSFLNWFQQKPGQPPKLLIYAASNRQSGVPDRFSGSGSGTDFTLTISSLQAEDVAVYFCQQSKEVPWTFGQGTKLEIKR
